Test results taken from PubChem BioAssay AID493014 (National Center for Advancing Translational Sciences (NCATS), 2011).
The list shows a part of the results. Further columns of the screen follow, without active or inactive calls. Most of these compounds were active or inconclusive in the main read-out, so they are no random draw. Potencies come from curve fits of mixed quality, noted in brackets.

Assay: qHTS Assay to Find Inhibitors of Chronic Active B-Cell Receptor Signaling
Details: ABC-DLBCL IkBa-CBG/CBR reporter, luminescence ratio (green luciferase fused to IkBa over red control in TMD8 lymphoma cells), 4 h
In short: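 TMD8 human ABC-DLBCL cells with doxycycline-inducible IκBα–green luciferase fusion and unfused red luciferase, in 0.5% FBS medium; compounds up to 46 uM, 4 h at 37C. Green/red luminescence ratio, filter-overlap corrected, fitted to concentration-response curves.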

[1] = measured here: CBR red luminescence, cell number
[2] = measured here: IkBa-CBG green luminescence

Row | SMILES | AC50 [1] | AC50 [2]
1 | O=C(Cn1c(CC(=O)N2CCOCC2)nc2ccccc21)Nc1ccc2c(c1)OC(F)(F)O2 | 12.6 µM [falling, partial curve] | –
2 | CC1CCN(c2nnc(-c3ccccc3)c3ccccc23)CC1 | 1.26 µM [rising, full curve, poor fit] | –
3 | Cc1ccc(C)c(S(=O)(=O)NCC(c2ccco2)S(=O)(=O)c2ccc(F)cc2)c1 (centres undefined) | 7.94 µM [falling, partial curve] | –
4 | O=C1C(C=Nc2ccc(F)cc2)=C(O)c2ccccc21 | 5.01 µM [falling, full curve] | –
5 | CCc1ccc(NC(=O)c2noc3c2CCc2ccccc2-3)cc1 | 6.51 µM [falling, single point] | –
6 | O=C(NNc1cccc(Cl)n1)c1cccnc1Cl | 0.103 µM [rising, full curve, poor fit] | –
7 | O=C(Cc1cccs1)Nc1nnc(SCc2ccc(Br)cc2)s1 | 29.1 µM [rising, single point] | –
8 | CN(C=C1C(=O)CC(C)(C)CC1=O)CCN1CCNCC1 | 32.6 µM [falling, single point] | –
9 | O=c1c2ccccc2[nH]c(=S)n1CCc1ccccc1 | 0.146 µM [rising, full curve, poor fit] | –
10 | Cc1cccc(N2CCN(S(=O)(=O)c3cn(C)cn3)CC2)c1C | 0.708 µM [rising, full curve, poor fit] | –
11 | CC(C)n1c(N2CCCC2)nc2c1c(=O)[nH]c(=O)n2C | 7.08 µM [rising, partial curve, poor fit] | –
12 | CN1C[C@H](C(=O)N[C@]2(C)O[C@@]3(O)[C@@H]4CCCN4C(=O)[C@H](Cc4ccccc4)N3C2=O)CC2c3cccc4[nH]cc(c34)C[C@H]21 (some centres undefined) | 8.2 µM [falling, partial curve, poor fit] | –
13 | COc1ccc(NC(=O)C(=O)NCC2CCCN2S(=O)(=O)c2ccc(C)cc2)cc1 (centres undefined) | 1.84 µM [rising, full curve] | 1.16 µM [falling, full curve]
14 | N#Cc1c(N)nc(Sc2ccc(Cl)cc2)c(C#N)c1-c1ccccc1Cl | 12.6 µM [falling, partial curve, poor fit] | –
15 | Cc1nc(NC(=O)/C=C/c2ccc(F)cc2)sc1C(=O)N(C)C | 8.2 µM [falling, partial curve] | –
16 | Cn1c(=O)c2c(nc(SCCN3CCCCC3)n2C)n(C)c1=O | 0.224 µM [falling, full curve, poor fit] | –
17 | CCOC(=O)Cn1nc(NC(=O)c2cc(OC)cc(OC)c2)cc1C | 20 µM [falling, single point] | –
18 | CNC(=S)/N=C/NOCc1c(Cl)cccc1Cl | 14.1 µM [rising, partial curve, poor fit] | –
19 | Cc1csc(NC(=O)c2ccc3c(=O)n4c(nc3c2)CCCCC4)n1 | 14.6 µM [falling, single point] | –
20 | O=C(CSc1nnc2ccc(-c3ccncc3)nn12)N1CCCCC1 | 2.82 µM [rising, single point] | –

Row | SMILES | AC50 [1] | AC50 [2]
21 | COc1ccccc1NC(=O)N1CCN(c2ccnc3cc(Cl)ccc23)CC1 | 12.6 µM [falling, partial curve] | –
22 | CCN(CC(=O)Nc1cc(C)on1)CC(=O)Nc1ccccc1C(F)(F)F | 6.51 µM [rising, partial curve, poor fit] | –
23 | COc1ccc(C(C)=O)cc1COC(=O)c1ccc(N)c([N+](=O)[O-])c1 | 14.1 µM [rising, partial curve] | 14.1 µM [falling, partial curve]
24 | CC1CN(c2nc3ccccc3cc2-c2ccccc2)CC(C)O1 (centres undefined) | 20 µM [falling, single point] | –
25 | CCOC(=O)c1ccc(NC(=S)Nc2ccccn2)cc1 | 18.4 µM [rising, partial curve] | –
26 | CCOC(=O)C1CCN(C(=O)C2CCN(S(=O)(=O)c3cccc4cccnc34)CC2)CC1 | 3.16 µM [rising, partial curve, poor fit] | –
27 | Cc1ccc(N2C(=O)Nc3ccc(Br)cc3C2(O)C(=O)NCCN(C)C)cc1C (centres undefined) | 15.8 µM [rising, partial curve] | –
28 | O=C(NNC(=O)c1ccccc1O)c1ccc(NS(=O)(=O)c2ccc(F)cc2)cc1 | 20.6 µM [falling, single point] | –
29 | COc1ccc(-c2nnc(OCc3ccccc3)c3ccccc23)cc1 | 6.51 µM [rising, single point] | –
30 | O=c1[nH]nc(SCc2ccccc2)n1C1CC2C=CC1C2 (centres undefined) | 0.447 µM [rising, full curve, poor fit] | –
31 | O=C(NN=C1CCCC1)c1n[nH]c2c1CCCC2 | 35.5 µM [falling, single point] | 20 µM [falling, partial curve]
32 | COc1ccc(C)cc1Nc1nc(C)nc2c1oc1ccccc12 | 2.51 µM [rising, partial curve, poor fit] | –
33 | O=C1N/C(=N/NC(=O)c2cccc3ccccc23)S/C1=C\c1ccccc1OCc1ccccc1 | 0.282 µM [falling, full curve, poor fit] | –
34 | O=C1c2ccccc2C2=Nc3ccccc3SC(c3cccc(F)c3)C12 (centres undefined) | 14.6 µM [falling, partial curve] | 20.6 µM [rising, single point]
35 | CCOC(=O)c1ccc(NC(=O)c2nn(C)cc2Br)cc1 | 15.8 µM [falling, partial curve] | –
36 | O=C(N/N=C1/CC(c2ccccc2)Oc2ccccc21)C1CC1 (centres undefined) | 29.1 µM [rising, single point] | –
37 | Cc1cccc(C(=O)NCCC(=O)Nc2ccc(F)c([N+](=O)[O-])c2)c1 | 0.562 µM [falling, full curve, poor fit] | –
38 | O=C(Nc1ccc(Br)cc1)C1Cc2ccccc2O/C1=N\O (centres undefined) | 0.282 µM [rising, full curve, poor fit] | –
39 | COc1cccc(OCCNc2cc(Cl)ccc2[N+](=O)[O-])c1 | 29.1 µM [rising, single point] | –
40 | COc1cccc(CNc2ncnc3c2nnn3C)c1 | 7.94 µM [falling, partial curve] | –

Among those listed so far, these contain an aryl methoxy group.
Row | SMILES | AC50 [1] | AC50 [2]
13 | COc1ccc(NC(=O)C(=O)NCC2CCCN2S(=O)(=O)c2ccc(C)cc2)cc1 (centres undefined) | 1.84 µM [rising, full curve] | 1.16 µM [falling, full curve]
17 | CCOC(=O)Cn1nc(NC(=O)c2cc(OC)cc(OC)c2)cc1C | 20 µM [falling, single point] | –
21 | COc1ccccc1NC(=O)N1CCN(c2ccnc3cc(Cl)ccc23)CC1 | 12.6 µM [falling, partial curve] | –
23 | COc1ccc(C(C)=O)cc1COC(=O)c1ccc(N)c([N+](=O)[O-])c1 | 14.1 µM [rising, partial curve] | 14.1 µM [falling, partial curve]
29 | COc1ccc(-c2nnc(OCc3ccccc3)c3ccccc23)cc1 | 6.51 µM [rising, single point] | –
32 | COc1ccc(C)cc1Nc1nc(C)nc2c1oc1ccccc12 | 2.51 µM [rising, partial curve, poor fit] | –
39 | COc1cccc(OCCNc2cc(Cl)ccc2[N+](=O)[O-])c1 | 29.1 µM [rising, single point] | –
40 | COc1cccc(CNc2ncnc3c2nnn3C)c1 | 7.94 µM [falling, partial curve] | –
